Tested on: Aβ1–42
Assay: Brain total Aβ1–42 content by mouse ELISA kit
Assay type: in vivo
Conditions: mice; T14-A24 10 mg/kg po, donepezil 15 mg/kg po; vs model group

**Q.** With `COc1cc2c(cc1OC)C(=O)C(CC1CCN(Cc3ccccc3)CC1)C2` (stereo not shown) [Donepezil] as the compound, how does the “total level of Aβ1–42 in brain” value read?
**A.** remarkably decreased

— publication PMC10388794 (Journal of Enzyme Inhibition and Medicinal Chemistry, 2023)
